Assay results: doi:10.1101/2021.02.05.429385
Construct, isoform or probe ends are uncertain for at least one entry. For some of these results: The comparison behind a weaker result is the experiment's own reference, which may not be listed here. For some of these results: At least one verdict rests on a figure or table, not on a statement of the authors.

Columns and labels:
[1] = target: hnRNP K (UniProt P61978); experiment: thermal shift; conditions: letters put together from the description
[2] = target: hnRNP K (UniProt P61978); experiment: fluorescence anisotropy

Sequence	binding result [1]	Kd [2]
TCCTCCTCCCTTCCCCTCCCGGTCCCTA [mRunx1 int5-6 DNA]	binds	
CGCGCGCGCGCACGCGCCGCAGUAAUAAAGGCGCCUGA [hRUNX1 5'UTR(mut)]		882 nM
CGCCCCCCCCCACCCCCCGCAGUAAUAAAGGCCCCUGA [hRUNX1 5'UTR]		14.2 nM
TCCTCCTCGCTTCGCCTCGCGGTCGCTA [mRunx1 int5-6(mut) DNA]	binds more weakly	
